Data as given in PubChem BioAssay AID248 (DTP/NCI, 2004).
The list shows only some results of the screen, not a fair sample: it is rich in T/C values a quarter to a half above the control, in often repeated tests (any T/C) and in doses without a T/C. Further doses and runs are listed elsewhere. T/C is the treated group as % of the vehicle group. Some entries give survivors of the animals treated and no T/C: the source holds a T/C of zero for them, seemingly a mark for toxic or unscored doses. Some doses without a T/C left all or most animals alive at the check, yet need not have been tolerated: survival well below the control is almost never listed, so the zero probably covers shortened survival too. Counts of survivors are from the toxicity check (mostly the fifth day) where no day follows; animals may have died later. Schedules are NCI's codes, read here as Q, the interval in days (D) or hours (H), X, the number of doses. Some schedules carry Z or #; the key to these is not given. Where survival is the endpoint, this PubChem deposit counts one and a half times the control or more as active, and values a quarter to a half above the control carry no call in these data; other NCI protocols may use other cut-offs. Some T/C values carry the count of animals alive at the toxicity check (mostly the fifth day); without a count, all were alive then.

System: L1210 leukemia ip in BDF1 mice, survival T/C
Experiment: NCI In Vivo Anticancer Drug Screen. Data for tumor model L1210 Leukemia (intraperitoneal) in B6D2F1 (BDF1) mice
Conditions: T/C endpoint: mean survival time, higher T/C = longer survival
[1] = dose: 400.0 mg/kg/injection, schedule: Q04DX003 (ip), vehicle: saline with Tween-80
[2] = dose: 150.0 mg/kg/injection, schedule: Q01DX001 (ip), vehicle: saline
[3] = dose: 300.0 mg/kg/injection, schedule: Q01DX001 (ip), vehicle: saline
[4] = dose: 100.0 mg/kg/injection, schedule: Q01DX009 (ip), vehicle: saline with Tween-80
[5] = dose: 200.0 mg/kg/injection, schedule: Q01DX009 (ip), vehicle: Klucel (hydroxypropylcellulose) (HPC)
[6] = dose: 400.0 mg/kg/injection, schedule: Q01DX001 (ip), vehicle: Klucel (hydroxypropylcellulose) (HPC)
[7] = dose: 400.0 mg/kg/injection, schedule: Q01DX001 (ip), vehicle: saline
[8] = dose: 50.0 mg/kg/injection, schedule: Q01DX Z (ip), vehicle: carboxymethylcellulose (CMC)
[9] = dose: 200.0 mg/kg/injection, schedule: Q01DX009 (ip), vehicle: saline with Tween-80

**Q.** With `Cc1c2cnccc2c(C)c2c1c1ccccc1n2C(C)C` as the compound, how does the T/C (dose: 125.0 mg/kg/injection, schedule: Q01DX009 (ip), vehicle: saline with Tween-80) read?
**A.** 132 % of control

**Q.** And the T/C (dose: 250.0 mg/kg/injection, schedule: Q01DX009 (ip), vehicle: saline with Tween-80)?
**A.** 144 % of control [5 of 6 alive]

**Q.** With `CCc1cc2c(cc1C(=O)CCN1CCCC1)C(C)(C)CCC2(C)C` as the compound, how does the survivor count (dose: 200.0 mg/kg/injection, schedule: Q04DX002 (ip), vehicle: saline with Tween-80) read?
**A.** 1 of 3

**Q.** And the survivor count (dose: 400.0 mg/kg/injection, schedule: Q04DX002 (ip), vehicle: saline with Tween-80)?
**A.** 0 of 3

**Q.** For `CC1(C)CC(=O)C2C(C1)Nc1ccccc1NC2c1cccc([N+](=O)[O-])c1` (centres undefined), which survivor count (dose: 400.0 mg/kg/injection, schedule: Q04DX002 (ip), vehicle: Klucel (hydroxypropylcellulose) (HPC)) is on record?
**A.** 2 of 3

**Q.** Which results are given for `c1ccc2c(c1)O[As](O[As]1Oc3ccccc3O1)O2`?
**A.** survivor count (dose: 18.0 mg/kg/injection, schedule: Q01DX009 (ip), vehicle: saline with Tween-80): 3 of 6; survivor count (dose: 25.0 mg/kg/injection, schedule: Q04DX003 (ip), vehicle: saline with Tween-80): 2 of 6; survivor count (dose: 28.0 mg/kg/injection, schedule: Q01DX009 (ip), vehicle: saline with Tween-80): 0 of 6; survivor count (dose: 40.0 mg/kg/injection, schedule: Q01DX009 (ip), vehicle: saline with Tween-80): 0 of 6; survivor count (dose: 50.0 mg/kg/injection, schedule: Q04DX003 (ip), vehicle: saline with Tween-80): 0 of 6; survivor count (dose: 100.0 mg/kg/injection, schedule: Q04DX003 (ip), vehicle: saline with Tween-80): 0 of 6; survivor count (dose: 200.0 mg/kg/injection, schedule: Q04DX003 (ip), vehicle: saline with Tween-80): 0 of 6; survivor count [1]: 0 of 6

**Q.** Which results are given for `COc1cc2c(cc1OC)C1(CCBr)C3CC4C(=CCOC5CC(=O)N2C1C54)CN3C(=O)Cc1ccccc1` (centres undefined)?
**A.** survivor count [2]: 0 of 6; survivor count [3]: 0 of 6

**Q.** For `O=S(=O)(C(Br)CBr)C(Br)CBr` (centres undefined), which survivor count [4] is on record?
**A.** 3 of 6

**Q.** For `S=C(NCc1ccc(Cl)cc1Cl)Nc1ccccc1`, which survivor count (dose: 400.0 mg/kg/injection, schedule: Q01DX009 (ip), vehicle: Klucel (hydroxypropylcellulose) (HPC)) is on record?
**A.** 0 of 6

**Q.** What does the source list for `COC(=O)c1cc(N2CC2)nc(SC)n1`?
**A.** survivor count (dose: 25.0 mg/kg/injection, schedule: Q01DX Z (ip), vehicle: methylcellulose (MC)): 0 of 6; survivor count (dose: 50.0 mg/kg/injection, schedule: Q01DX Z (ip), vehicle: methylcellulose (MC)): 0 of 6; survivor count (dose: 100.0 mg/kg/injection, schedule: Q01DX Z (ip), vehicle: methylcellulose (MC)): 0 of 6; survivor count (dose: 200.0 mg/kg/injection, schedule: Q01DX Z (ip), vehicle: methylcellulose (MC)): 0 of 6

**Q.** `O=[N+]([O-])c1ccc(F)cc1F` was tested. Which survivor count (dose: 175.0 mg/kg/injection, schedule: Q01DX009 (ip), vehicle: Klucel (hydroxypropylcellulose) (HPC)) did it give?
**A.** 0 of 6

**Q.** What about the survivor count (dose: 350.0 mg/kg/injection, schedule: Q01DX009 (ip), vehicle: Klucel (hydroxypropylcellulose) (HPC)) of the same compound?
**A.** 0 of 6

**Q.** How did the survivor count (dose: 200.0 mg/kg/injection, schedule: Q04DX003 (ip), vehicle: saline) turn out when `CCOC(=O)C(C)C(=O)C(=O)N=C(N)N` (centres undefined) was run?
**A.** 6 of 6

**Q.** `S=C(Nc1cccc(Cl)c1)Nc1cccc(Cl)c1` was tested. Which survivor count [1] did it give?
**A.** 0 of 3

**Q.** What does the source list for `CN1C(=O)N(Br)C(C)(C)C1=O`?
**A.** survivor count [5]: 3 of 6; survivor count [6]: 2 of 6

**Q.** `CC(CO)(CO)N=Cc1ccccc1O.CC(CO)(CO)N=Cc1ccccc1O.[Co]` was tested. Which survivor count [7] did it give?
**A.** 0 of 6

**Q.** How did the survivor count (dose: 200.0 mg/kg/injection, schedule: Q01DX001 (ip), vehicle: saline) turn out when `NCc1ccccn1` was run?
**A.** 6 of 6

**Q.** With `COc1ccc(CC2NCCc3cc(OC)c(OC)cc32)cc1OC` (centres undefined) as the compound, how does the survivor count [2] read?
**A.** 1 of 6

**Q.** What about the survivor count [3] of the same compound?
**A.** 0 of 6

**Q.** With `NC(c1ccccc1)C(N)c1ccccc1` (centres undefined) as the compound, how does the survivor count (dose: 200.0 mg/kg/injection, schedule: Q04DX003 (ip), vehicle: other) read?
**A.** 6 of 6

**Q.** And the survivor count (dose: 400.0 mg/kg/injection, schedule: Q04DX003 (ip), vehicle: other)?
**A.** 0 of 6

**Q.** And the survivor count [1]?
**A.** 3 of 6

**Q.** How did the T/C (dose: 12.5 mg/kg/injection, schedule: Q01DX Z (ip), vehicle: carboxymethylcellulose (CMC)) turn out when `CNC(=N)c1ccc(NC(=N)c2ccc(NC(=O)c3ccc(C(=O)Nc4ccc(C(=N)Nc5ccc(C(=N)NC)cc5)cc4)cc3)cc2)cc1` was run?
**A.** 138 % of control

**Q.** And the T/C (dose: 25.0 mg/kg/injection, schedule: Q01DX Z (ip), vehicle: carboxymethylcellulose (CMC))?
**A.** 130 % of control

**Q.** What about the T/C [8] of the same compound?
**A.** 130 % of control

**Q.** What about the T/C (dose: 62.0 mg/kg/injection, schedule: Q01DX Z (ip), vehicle: carboxymethylcellulose (CMC)) of the same compound?
**A.** 130 % of control

**Q.** And the T/C (dose: 125.0 mg/kg/injection, schedule: Q01DX Z (ip), vehicle: carboxymethylcellulose (CMC))?
**A.** 125 % of control

**Q.** What about the T/C (dose: 250.0 mg/kg/injection, schedule: Q01DX Z (ip), vehicle: carboxymethylcellulose (CMC)) of the same compound?
**A.** 141 % of control

**Q.** And the T/C (dose: 300.0 mg/kg/injection, schedule: Q01DX Z (ip), vehicle: carboxymethylcellulose (CMC))?
**A.** 130 % of control

**Q.** What about the survivor count (dose: 500.0 mg/kg/injection, schedule: Q01DX Z (ip), vehicle: carboxymethylcellulose (CMC)) of the same compound?
**A.** 2 of 6

**Q.** How did the survivor count (dose: 400.0 mg/kg/injection, schedule: Q04DX003 (ip), vehicle: acetone) turn out when `O=C1CCCN(C2CCCCC2)CCC1O` (centres undefined) was run?
**A.** 0 of 6

**Q.** Which survivor count [5] does the source give for `O=C1C=C(NCCc2cnc[nH]2)c2ccccc2C1=O` here?
**A.** 3 of 3

**Q.** What does the source list for `CC[As](=O)(O)CCCc1ccccc1`?
**A.** survivor count (dose: 50.0 mg/kg/injection, schedule: Q01DX001 (ip), vehicle: Klucel (hydroxypropylcellulose) (HPC)): 0 of 3; survivor count (dose: 100.0 mg/kg/injection, schedule: Q01DX001 (ip), vehicle: Klucel (hydroxypropylcellulose) (HPC)): 0 of 3; survivor count (dose: 200.0 mg/kg/injection, schedule: Q01DX001 (ip), vehicle: Klucel (hydroxypropylcellulose) (HPC)): 0 of 3; survivor count [6]: 0 of 3

**Q.** How did the T/C (dose: 0.68 mg/kg/injection, schedule: Q01DX009 (ip), vehicle: saline) turn out when `N#Cc1ccc(NC(=O)N(CCCl)N=O)cc1` was run?
**A.** 136 % of control

**Q.** What about the T/C (dose: 3.12 mg/kg/injection, schedule: Q01DX Z (ip), vehicle: carboxymethylcellulose (CMC)) of the same compound?
**A.** 141 % of control

**Q.** And the T/C (dose: 9.37 mg/kg/injection, schedule: Q01DX001 (ip), vehicle: carboxymethylcellulose (CMC))?
**A.** 133 % of control

**Q.** What about the T/C (dose: 18.75 mg/kg/injection, schedule: Q01DX001 (ip), vehicle: carboxymethylcellulose (CMC)) of the same compound?
**A.** 140 % of control

**Q.** And the survivor count [8]?
**A.** 6 of 6

**Q.** What about the survivor count (dose: 75.0 mg/kg/injection, schedule: Q01DX Z (ip), vehicle: carboxymethylcellulose (CMC)) of the same compound?
**A.** 3 of 6

**Q.** And the survivor count (dose: 150.0 mg/kg/injection, schedule: Q01DX Z (ip), vehicle: carboxymethylcellulose (CMC))?
**A.** 0 of 6

**Q.** And the survivor count (dose: 200.0 mg/kg/injection, schedule: Q01DX Z (ip), vehicle: carboxymethylcellulose (CMC))?
**A.** 0 of 6

**Q.** Which results are given for `COC1(c2ccc(Cl)cc2)OC(=O)C(c2ccccc2)=C1Cc1ccccc1` (centres undefined)?
**A.** survivor count (dose: 50.0 mg/kg/injection, schedule: Q01DX009 (ip), vehicle: saline with Tween-80): 3 of 3; survivor count [4]: 3 of 3; survivor count [9]: 3 of 3

**Q.** What does the source list for `CCCCNC(C)(C)C(SC(C)=O)c1ccc(Cl)cc1` (centres undefined)?
**A.** survivor count [9]: 4 of 6; survivor count (dose: 400.0 mg/kg/injection, schedule: Q01DX009 (ip), vehicle: saline with Tween-80): 0 of 6

**Q.** Which survivor count [7] does the source give for `O=[N+]([O-])/C(=C/c1ccccc1)c1ccccc1` here?
**A.** 0 of 4

**Q.** Which results are given for `CC1=CC(=Nc2ccc(N(CCCl)CCCl)cc2)C=CC1=O`?
**A.** survivor count (dose: 100.0 mg/kg/injection, schedule: Q01DX009 (ip), vehicle: Klucel (hydroxypropylcellulose) (HPC)): 3 of 3; survivor count [5]: 3 of 3

**Q.** With `CCOC12CC3C4=CCOC5CC(=O)N6c7ccccc7C1(CCN2C4)C6C53` (centres undefined) as the compound, how does the survivor count (dose: 75.0 mg/kg/injection, schedule: Q01DX001 (ip), vehicle: saline) read?
**A.** 3 of 6

**Q.** And the survivor count [2]?
**A.** 0 of 6

**Q.** What about the survivor count [3] of the same compound?
**A.** 0 of 6

**Q.** With `CNC(c1ccccc1)C(O)c1ccccc1` (centres undefined) as the compound, how does the survivor count (dose: 200.0 mg/kg/injection, schedule: Q04DX003 (ip), vehicle: Klucel (hydroxypropylcellulose) (HPC)) read?
**A.** 2 of 6

**Q.** What about the survivor count (dose: 400.0 mg/kg/injection, schedule: Q04DX003 (ip), vehicle: Klucel (hydroxypropylcellulose) (HPC)) of the same compound?
**A.** 0 of 6
